The record followed here is PMC9584626.

The chains behind the UniProt entries cited, without tags or fusion partners. Where a name states a change or a piece, a line headed by the entry shows the natural chain unless it says otherwise. Residues count along the entry.
UniProt Q9LXL1: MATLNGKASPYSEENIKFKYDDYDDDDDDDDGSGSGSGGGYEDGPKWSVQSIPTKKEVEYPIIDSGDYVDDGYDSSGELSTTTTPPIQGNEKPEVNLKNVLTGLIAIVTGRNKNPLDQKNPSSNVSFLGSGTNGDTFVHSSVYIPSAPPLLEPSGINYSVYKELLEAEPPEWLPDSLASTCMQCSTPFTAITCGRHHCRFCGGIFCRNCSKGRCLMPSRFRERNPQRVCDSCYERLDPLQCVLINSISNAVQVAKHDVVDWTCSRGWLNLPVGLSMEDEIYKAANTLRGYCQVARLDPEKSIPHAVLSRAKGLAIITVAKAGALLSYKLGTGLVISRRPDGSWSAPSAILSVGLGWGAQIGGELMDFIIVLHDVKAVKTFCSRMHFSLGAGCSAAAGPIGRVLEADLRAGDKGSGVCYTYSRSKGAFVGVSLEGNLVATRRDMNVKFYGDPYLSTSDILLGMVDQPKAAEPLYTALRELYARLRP
UniProt Q8S926, residues 1-118: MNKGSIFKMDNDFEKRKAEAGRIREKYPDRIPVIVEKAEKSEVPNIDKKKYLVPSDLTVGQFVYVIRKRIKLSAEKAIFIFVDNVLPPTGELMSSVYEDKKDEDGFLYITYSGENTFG
UniProt Q9XEB5, residues 1-117: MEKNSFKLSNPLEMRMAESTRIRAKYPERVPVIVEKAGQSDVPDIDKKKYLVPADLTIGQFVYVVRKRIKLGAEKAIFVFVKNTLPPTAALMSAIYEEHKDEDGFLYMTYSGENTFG
UniProt Q9LHG8: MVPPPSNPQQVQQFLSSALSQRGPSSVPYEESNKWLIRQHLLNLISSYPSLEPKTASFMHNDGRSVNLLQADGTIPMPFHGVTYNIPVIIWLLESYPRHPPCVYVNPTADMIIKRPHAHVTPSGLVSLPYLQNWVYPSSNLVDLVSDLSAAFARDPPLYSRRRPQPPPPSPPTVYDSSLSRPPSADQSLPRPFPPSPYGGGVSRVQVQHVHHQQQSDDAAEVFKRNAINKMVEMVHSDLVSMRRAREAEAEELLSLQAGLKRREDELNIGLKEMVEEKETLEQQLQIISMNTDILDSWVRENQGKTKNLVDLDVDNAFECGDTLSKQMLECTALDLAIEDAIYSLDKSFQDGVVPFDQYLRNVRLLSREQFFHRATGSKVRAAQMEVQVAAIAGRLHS

The target of assay [1] is mCherry-CFS1 (cell death related endosomal FYVE/SYLF protein 1) (Arabidopsis thaliana) (UniProt Q9LXL1). Kind of assay: co-IP; RFP-Trap magnetic agarose beads, 1 h, lysates of 7-d-old seedlings co-expressing the proteins, EDTA-free buffer; seedlings in control or nitrogen-deficient 1/2 MS media for 12 h; blots with anti-GFP and anti-RFP.
Assay [2] addresses T1, GST-ATG8A (Arabidopsis thaliana) (UniProt Q8LEM4).
T1 sequence: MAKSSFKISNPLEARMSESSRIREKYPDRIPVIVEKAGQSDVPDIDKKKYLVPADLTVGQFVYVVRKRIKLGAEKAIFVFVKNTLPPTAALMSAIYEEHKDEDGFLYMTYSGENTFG
Kind of assay: pull-down; GST pull-down coupled with peptide competition: as a2, AIM peptide or AIM mutant peptide added to a final concentration of 200 uM.

Assay [3] concerns the target T2, GST-ATG8F (Arabidopsis thaliana) (UniProt Q8VYK7).
T2 sequence: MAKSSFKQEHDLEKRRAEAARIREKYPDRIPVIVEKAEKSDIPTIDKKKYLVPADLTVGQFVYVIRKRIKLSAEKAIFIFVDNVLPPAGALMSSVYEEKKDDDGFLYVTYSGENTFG
Description: pull-down; GST pull-down: 100 ul E. coli lysate with the GST bait mixed with 400 ul plant lysate, glutathione magnetic agarose beads, 1 h at 4°C, EDTA-free buffer (25 mM Tris/HCl pH 7.5, 150 mM NaCl, 0.1% Nonidet P-40/Igepal, 10 uM ZnCl2); blots with anti-GST and anti-RFP.

For assay [4], the target named is T3, GST-ATG8D (Arabidopsis thaliana) (UniProt Q9SL04).
T3 sequence: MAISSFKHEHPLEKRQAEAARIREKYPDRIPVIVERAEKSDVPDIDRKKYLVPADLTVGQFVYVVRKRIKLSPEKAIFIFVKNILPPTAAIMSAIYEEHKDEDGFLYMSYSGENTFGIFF
The description is as above.

The target in assay [5] is GST-ATG8E (Arabidopsis thaliana) (UniProt Q8S926). The assay is described as above.
In assay [6] the target is T4, GST-ATG8G (Arabidopsis thaliana) (UniProt Q9LZZ9).
T4 sequence: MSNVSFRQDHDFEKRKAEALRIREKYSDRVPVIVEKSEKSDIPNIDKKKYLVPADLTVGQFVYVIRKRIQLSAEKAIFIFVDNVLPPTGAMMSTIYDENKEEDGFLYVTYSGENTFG
The assay is described as above.

The target of assay [7] is T5, GST-ATG8A^ADS (Arabidopsis thaliana) (UniProt Q8LEM4).
T5 sequence: T1 sequence with Y50A, L51A
The description is as above.

Assay [8] deals with T6, GST-ATG8I (Arabidopsis thaliana) (UniProt Q9LRP7).
T6 sequence: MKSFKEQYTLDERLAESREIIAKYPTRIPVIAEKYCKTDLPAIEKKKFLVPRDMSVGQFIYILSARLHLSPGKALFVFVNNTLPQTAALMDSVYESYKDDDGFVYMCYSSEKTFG
Described as above.

For assay [9], the target named is T1, GST-ATG8A (Arabidopsis thaliana). The assay is described as above.
Assay [10] concerns the target T7, GST-ATG8B (Arabidopsis thaliana) (UniProt Q9XEB5).
T7 sequence: T1 sequence with A2E, S4N, I8L, A14M, S17A, S20T, E24A, D28E, I30V, V58I
Described as above.

Assay [11] concerns the target T8, GST-ATG8C (Arabidopsis thaliana) (UniProt Q8S927).
T8 sequence: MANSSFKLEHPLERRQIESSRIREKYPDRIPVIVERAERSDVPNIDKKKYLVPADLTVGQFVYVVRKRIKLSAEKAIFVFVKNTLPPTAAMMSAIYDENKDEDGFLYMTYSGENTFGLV
Described as above.

Assay [12] concerns the target T9, GST-ATG8H (Arabidopsis thaliana) (UniProt Q8S925).
T9 sequence: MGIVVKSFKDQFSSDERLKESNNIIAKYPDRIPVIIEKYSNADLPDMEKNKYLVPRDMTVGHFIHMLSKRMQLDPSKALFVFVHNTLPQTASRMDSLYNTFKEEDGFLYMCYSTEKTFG
The description is as above.

Assay [13] addresses mCherry-CFS1 (cell death related endosomal FYVE/SYLF protein 1) (Arabidopsis thaliana) (UniProt Q9LXL1). Kind of assay: co-IP; RFP-Trap magnetic agarose beads, 1 h, lysates of 7-d-old seedlings co-expressing the proteins, EDTA-free buffer; seedlings in control or nitrogen-deficient 1/2 MS media for 12 h; blots with anti-GFP and anti-RFP. The source holds these as a separate data set.

Changes are numbered by the printed parent chain. Read-outs that look alike come from different tables or passages of the source. No constants are given. Whether binding was seen depends on the method and setting. Binding seen in cells or lysates may run through a third protein. For some of these results: Binding calls can cover weak binding; strength is not graded here. For some of these results: Tags and fused reporters may be left off the sequences shown.

As for “VPS23A-mTurquoise2 (from UniProt Q9LHG8)”, in [1], the binding result is on record as “binds”.

“mCherry-CFS1 (cell death related endosomal FYVE/SYLF protein 1) (from UniProt Q9LXL1)”: the binding entry in assay [2] is listed as “binds”; in [3], “binds”; in [4] it was “binds”; in assay [5], “binds”; in assay [6], “no binding”; in assay [7] it was “no binding”. The binding entry in assay [8] was “no binding”; in [9], “binds”; in [10], “binds”; in [11], “binds”; in assay [12], “no binding”.

B1: GFP-ATG8A (protein, UniProt Q8LEM4 1-117)
chain: T1 sequence
On to B1, for which, in assay [13], the binding result is on record as “binds”.
